This passage reports binding signal results from PMC7819943, “Rice protein-binding microarrays: a tool to detect cis-acting elements near promoter regions in rice”.

This is one part of the list.

The target in the assay is T1, OsSMF1 (Oryza sativa, UniProt Q6ZLB0 1-436).
T1 sequence: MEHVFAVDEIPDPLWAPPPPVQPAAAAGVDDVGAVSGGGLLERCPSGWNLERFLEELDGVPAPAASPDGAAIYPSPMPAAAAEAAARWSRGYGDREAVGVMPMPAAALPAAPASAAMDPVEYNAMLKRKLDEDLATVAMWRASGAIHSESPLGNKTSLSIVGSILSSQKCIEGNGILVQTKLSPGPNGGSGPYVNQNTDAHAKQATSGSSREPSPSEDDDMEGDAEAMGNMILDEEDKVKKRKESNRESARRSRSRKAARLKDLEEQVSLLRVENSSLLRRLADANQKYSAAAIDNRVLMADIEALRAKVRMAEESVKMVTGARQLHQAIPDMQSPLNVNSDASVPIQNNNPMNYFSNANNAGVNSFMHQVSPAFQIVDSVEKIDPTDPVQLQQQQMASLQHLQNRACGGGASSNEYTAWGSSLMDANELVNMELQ
As to the kind of experiment: protein-binding microarray (RPBM); PBS, 2% BSA, 51.3 ng/ul salmon testes DNA, 50 uM zinc acetate, 200 nM TF, 25 C, 1 h; high values mean tight binding. The note with it: protein: recombinant; tags: N-terminal polyhistidine and DsRed monomer fusion (pET32a); chain copies: 2; label: CyDye5-dUTP incorporated in the synthesized complementary strand; 3' TTTTT single-stranded linker to array surface; dsDNA, one strand shown. The method, boiled down: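 Transcription factors, each fused N-terminally to a polyhistidine tag and DsRed, were expressed in E. coli BL21-CodonPlus and purified on Ni–NTA. A custom Agilent array was made double-stranded by primer extension with Cy5-dUTP and blocked with 2% BSA. It was incubated with 200 nM protein in PBS, 2% BSA, salmon testes DNA and 50 µM zinc acetate at 25 °C for 1 h, then washed. The binding signal is per-feature fluorescence intensity (arbitrary units) read on an Axon 4000B scanner.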
With “ATGACTAACGTAATGTAAGTGACCATGCATATATGCATGCCGGAGTCACCTAGTGCAG”, the binding signal is 3930 fluorescence intensity (a.u.).
The value for “ATTGTTGAATCCAGTCACACCAAGCTTGAGGGCTTTGGATCGGAGTCACCTAGTGCAG” was 4640 fluorescence intensity (a.u.); that for “AAGGTAGTATCAGCCCAAGTCCAGCCTGGCATGATACTGGCGGAGTCACCTAGTGCAG” was 3500 fluorescence intensity (a.u.); that for “CTTACTGTGCAACTGCACAAATTACAATGACTAGTAGTTGCGGAGTCACCTAGTGCAG” was 3670 fluorescence intensity (a.u.).
As for “GACATACCTGAGCACCATATATGGTAGCAACCAACCCTTTCGGAGTCACCTAGTGCAG”, the figure is 25100 fluorescence intensity (a.u.).
The value for “TGGGATCGCGGTGACGCCGCCGCCGCCGGTGGTAGCTCCTCGGAGTCACCTAGTGCAG” was 3370 fluorescence intensity (a.u.); that for “GCCATCAACTAAGCAGTTTCAGTGAAACTTCCACCATGCTCGGAGTCACCTAGTGCAG” was 21800 fluorescence intensity (a.u.).
On to “TAATACCAGTACTAGATCTCGACTAATCCCGCGTCACGAACGGAGTCACCTAGTGCAG”, for which the binding signal was 4700 fluorescence intensity (a.u.).
As for “AGAACAGCCAACCCATTGATGAGTCAGCAAAGGATCAGATCGGAGTCACCTAGTGCAG”, the figure is 14400 fluorescence intensity (a.u.); as for “GCAGATCGTAATGACGTTATTCGATATTCGATCGATCGGCCGGAGTCACCTAGTGCAG”, 3240 fluorescence intensity (a.u.); as for “CAGATCCACGCCGCCACCTCCGCTGATCCGTGCCGCCGTCCGGAGTCACCTAGTGCAG”, 3330 fluorescence intensity (a.u.).
Take “TGGGCAAGATGGTGAATTGGTGATGGTTCTCATGAATGGCCGGAGTCACCTAGTGCAG”: the binding signal was 3940 fluorescence intensity (a.u.).
As for “CCTCTTCCTCCTCCTCGCATGCCCACCTCAGAATCATCTCCGGAGTCACCTAGTGCAG”, the figure is 4150 fluorescence intensity (a.u.).
The value for “AAAACAACAAGAGGACGCGAGGGGTCGGGGTGGGAGAGGGCGGAGTCACCTAGTGCAG” was 4590 fluorescence intensity (a.u.).
As for “GGCCACAACGATCTCTCTCTCCAGTCTCGACTCCCCAGCTCGGAGTCACCTAGTGCAG”, the figure is 3290 fluorescence intensity (a.u.).
Turning to “GGACCTACCCAAGTACGTGGACCCGCTGCCGCAGATGGCCCGGAGTCACCTAGTGCAG”, the binding signal is 3660 fluorescence intensity (a.u.).
As for “CGGCGGCGGGCGCGGCGGGAGGAGGGCGATGACAGGTGGGCGGAGTCACCTAGTGCAG”, the figure is 5010 fluorescence intensity (a.u.).
As for “TCTCCTCATCAATCCAATCTCATTAACTCATCACAAGCATCGGAGTCACCTAGTGCAG”, the binding signal was 36800 fluorescence intensity (a.u.).
As for “CGATCGATTGATCTGTACGTGCGCTTTCAGGTTAATTTGTCGGAGTCACCTAGTGCAG”, the figure is 3580 fluorescence intensity (a.u.); as for “GGCACGTGCATGTACGCAAACGAGTTTCCAGATAAGTAAACGGAGTCACCTAGTGCAG”, 24900 fluorescence intensity (a.u.).
The value for “TGTGACCCAACTTTCCCCATCTGAGTCATCTGACCATCTCCGGAGTCACCTAGTGCAG” was 13900 fluorescence intensity (a.u.); that for “GTGATGCAAACACAGCCTTAGTCACCTGTTTAGACCGGCCCGGAGTCACCTAGTGCAG” was 3790 fluorescence intensity (a.u.).
Consider “TCTGATTGAACGAGTTTACAGATTGAGAAAGCACGCGTCACGGAGTCACCTAGTGCAG”, for which the binding signal is 3390 fluorescence intensity (a.u.).
As for “CTTGGCATGATTCGGCAAACACTCAAACTGTTCTCACTTTCGGAGTCACCTAGTGCAG”, the figure is 3250 fluorescence intensity (a.u.).
The value for “TAAAGTTCACCTTCTTTTCCTGCTGTCATGACGTGAGCCTCGGAGTCACCTAGTGCAG” was 4170 fluorescence intensity (a.u.); that for “AAGGGCAGCATATACAGTCATACAGACTAGTATTAATTAGCGGAGTCACCTAGTGCAG” was 4370 fluorescence intensity (a.u.); that for “CTACGAGCACACGCCCTCGTACTCACCCGGACGGCGATGGCGGAGTCACCTAGTGCAG” was 3780 fluorescence intensity (a.u.).
As for “GTTGACAAGAAATGACACGTGAGCATGATAGCTCAACGACCGGAGTCACCTAGTGCAG”, the figure is 7820 fluorescence intensity (a.u.); as for “AATTCCCATGCTGATTGCACGTCATAGGTGCATCTAGCGACGGAGTCACCTAGTGCAG”, 3530 fluorescence intensity (a.u.).
Turning to “GCAGCGAGTGCTCTGTCTTTGCCCATCGCCTGACGCCGCACGGAGTCACCTAGTGCAG”, the binding signal is 4550 fluorescence intensity (a.u.).
As for “CCTCAACGCACAGCTCGGTCAGCACAAACACCTCCCCTGCCGGAGTCACCTAGTGCAG”, the figure is 3320 fluorescence intensity (a.u.); as for “TTTGCTGACTGTAGTGACGTGTTTTGTTAAATCCATTATCCGGAGTCACCTAGTGCAG”, 10300 fluorescence intensity (a.u.).
With “AGCCGGCGGCGCGCACGTAGCACCACGGACTCCGCCAGCGCGGAGTCACCTAGTGCAG”, the binding signal is 3430 fluorescence intensity (a.u.).
The value for “CGGCATCGTCGTCCCGCGCGCCACGTGCTTCCCGCTCTAGCGGAGTCACCTAGTGCAG” was 5750 fluorescence intensity (a.u.).
As for “ACCCCGCCACGCCACGCCGCGCCGGGCTGGGCTGCTGCTCCGGAGTCACCTAGTGCAG”, the figure is 4860 fluorescence intensity (a.u.).
As for “CACGCTGTCCGGTCTCTCTTTCTATCTTGTGTTGACTCTGCGGAGTCACCTAGTGCAG”, the figure is 3680 fluorescence intensity (a.u.).
For the sequence “GAGAGGACGAAGGGAAAGAGAGAGATGGTGATGACGTGGCCGGAGTCACCTAGTGCAG”, the binding signal is 31600 fluorescence intensity (a.u.).
“GTGGTCGTCGCTGATAGCGAGGTGGGTAGGGTTAATTTTGCGGAGTCACCTAGTGCAG”: the binding signal is 3890 fluorescence intensity (a.u.).
The value for “GATCGAGTCATACACATTTGACCAACCAAAGCCTTAGACTCGGAGTCACCTAGTGCAG” was 3270 fluorescence intensity (a.u.); that for “CTGCCGTCGTTTTGTTTACGCCTTTAAACAATGTGAAGACCGGAGTCACCTAGTGCAG” was 25900 fluorescence intensity (a.u.).
For the sequence “CAACCACCCCGCGATAGCTGGAGTCACCGGCGTTCACACACGGAGTCACCTAGTGCAG”, the binding signal is 3240 fluorescence intensity (a.u.).
As for “GGAAGCTGGAGATTGGTCTTTCATGTCCTCATTGGCAAATCGGAGTCACCTAGTGCAG”, the figure is 3530 fluorescence intensity (a.u.).
